The list shows a part of the results. This is a noisy data set.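 Tm was set to 64 °C where no melting was found, and many curves are irregular.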

Protein sequences, listed by entry. Tags and fused reporters are not part of them. Lines headed by an entry give the natural chain unless they say otherwise; changes in a name come on top.
UniProt O14933: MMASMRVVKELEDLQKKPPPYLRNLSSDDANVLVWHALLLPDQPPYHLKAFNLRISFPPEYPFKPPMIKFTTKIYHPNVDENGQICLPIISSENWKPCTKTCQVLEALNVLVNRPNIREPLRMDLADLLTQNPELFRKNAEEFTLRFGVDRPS
UniProt A5PLN9: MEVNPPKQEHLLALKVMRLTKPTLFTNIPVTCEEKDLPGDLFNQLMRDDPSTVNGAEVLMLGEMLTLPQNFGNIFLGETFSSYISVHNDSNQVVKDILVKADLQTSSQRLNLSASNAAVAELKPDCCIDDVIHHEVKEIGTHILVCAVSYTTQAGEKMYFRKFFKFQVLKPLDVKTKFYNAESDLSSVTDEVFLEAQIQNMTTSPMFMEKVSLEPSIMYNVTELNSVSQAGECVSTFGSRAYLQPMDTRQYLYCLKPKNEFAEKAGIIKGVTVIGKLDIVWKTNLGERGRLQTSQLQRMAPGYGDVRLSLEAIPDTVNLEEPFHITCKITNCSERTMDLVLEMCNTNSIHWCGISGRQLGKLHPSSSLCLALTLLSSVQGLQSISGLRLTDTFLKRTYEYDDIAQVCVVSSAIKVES
UniProt A8MW92: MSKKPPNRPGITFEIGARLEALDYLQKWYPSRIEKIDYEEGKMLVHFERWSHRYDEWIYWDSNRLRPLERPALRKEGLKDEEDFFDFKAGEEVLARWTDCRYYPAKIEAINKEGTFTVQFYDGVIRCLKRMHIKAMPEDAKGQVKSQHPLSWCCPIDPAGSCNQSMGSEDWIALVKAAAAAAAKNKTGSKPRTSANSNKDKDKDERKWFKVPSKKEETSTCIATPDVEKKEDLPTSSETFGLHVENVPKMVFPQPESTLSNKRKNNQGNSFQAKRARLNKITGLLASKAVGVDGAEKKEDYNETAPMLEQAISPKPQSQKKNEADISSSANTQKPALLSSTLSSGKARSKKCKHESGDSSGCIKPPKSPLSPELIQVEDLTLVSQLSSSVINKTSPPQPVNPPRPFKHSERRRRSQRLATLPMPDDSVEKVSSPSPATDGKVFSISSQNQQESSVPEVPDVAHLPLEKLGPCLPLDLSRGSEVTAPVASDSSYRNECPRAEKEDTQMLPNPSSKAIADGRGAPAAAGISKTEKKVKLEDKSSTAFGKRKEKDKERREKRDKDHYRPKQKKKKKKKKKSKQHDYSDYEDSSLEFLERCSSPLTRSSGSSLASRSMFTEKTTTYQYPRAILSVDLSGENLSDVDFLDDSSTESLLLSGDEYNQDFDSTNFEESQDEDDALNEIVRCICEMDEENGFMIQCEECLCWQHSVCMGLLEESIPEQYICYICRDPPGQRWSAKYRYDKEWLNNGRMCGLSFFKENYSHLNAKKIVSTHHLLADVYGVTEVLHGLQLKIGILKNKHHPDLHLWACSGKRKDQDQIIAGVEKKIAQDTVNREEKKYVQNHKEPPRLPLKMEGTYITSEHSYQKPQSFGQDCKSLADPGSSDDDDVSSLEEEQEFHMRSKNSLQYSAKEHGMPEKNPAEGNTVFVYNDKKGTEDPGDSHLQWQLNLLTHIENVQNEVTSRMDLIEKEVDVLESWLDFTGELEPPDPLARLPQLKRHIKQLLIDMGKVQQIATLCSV
UniProt O00231, whole entry: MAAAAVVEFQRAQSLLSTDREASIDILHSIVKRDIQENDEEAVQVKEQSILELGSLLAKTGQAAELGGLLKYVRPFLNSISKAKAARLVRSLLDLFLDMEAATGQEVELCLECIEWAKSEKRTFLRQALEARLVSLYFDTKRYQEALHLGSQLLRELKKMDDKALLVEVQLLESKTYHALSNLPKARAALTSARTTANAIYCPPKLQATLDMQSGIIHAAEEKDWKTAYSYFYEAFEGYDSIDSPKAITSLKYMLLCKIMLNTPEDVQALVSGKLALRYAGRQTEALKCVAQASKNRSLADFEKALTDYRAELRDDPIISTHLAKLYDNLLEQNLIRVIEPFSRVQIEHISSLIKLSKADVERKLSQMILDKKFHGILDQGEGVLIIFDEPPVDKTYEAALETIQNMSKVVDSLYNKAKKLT
UniProt O00429, whole entry: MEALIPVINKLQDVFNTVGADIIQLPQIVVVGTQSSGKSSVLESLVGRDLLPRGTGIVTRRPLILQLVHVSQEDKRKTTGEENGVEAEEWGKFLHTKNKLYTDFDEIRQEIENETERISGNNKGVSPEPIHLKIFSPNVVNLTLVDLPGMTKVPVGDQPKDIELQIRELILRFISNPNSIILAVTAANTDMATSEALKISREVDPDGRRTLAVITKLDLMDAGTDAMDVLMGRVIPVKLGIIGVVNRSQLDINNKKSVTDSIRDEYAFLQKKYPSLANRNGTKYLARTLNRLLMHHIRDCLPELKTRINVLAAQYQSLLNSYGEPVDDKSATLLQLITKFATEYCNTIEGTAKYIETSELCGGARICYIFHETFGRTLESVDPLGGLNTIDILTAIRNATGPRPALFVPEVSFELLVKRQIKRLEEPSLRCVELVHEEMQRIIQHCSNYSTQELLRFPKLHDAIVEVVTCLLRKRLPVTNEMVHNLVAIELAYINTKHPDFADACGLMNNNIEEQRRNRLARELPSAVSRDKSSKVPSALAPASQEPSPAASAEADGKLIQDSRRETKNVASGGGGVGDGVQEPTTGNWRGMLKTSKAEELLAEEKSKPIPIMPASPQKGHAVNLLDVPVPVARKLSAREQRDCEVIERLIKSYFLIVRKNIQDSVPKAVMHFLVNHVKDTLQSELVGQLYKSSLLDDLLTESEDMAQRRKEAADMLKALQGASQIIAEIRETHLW
UniProt O00400: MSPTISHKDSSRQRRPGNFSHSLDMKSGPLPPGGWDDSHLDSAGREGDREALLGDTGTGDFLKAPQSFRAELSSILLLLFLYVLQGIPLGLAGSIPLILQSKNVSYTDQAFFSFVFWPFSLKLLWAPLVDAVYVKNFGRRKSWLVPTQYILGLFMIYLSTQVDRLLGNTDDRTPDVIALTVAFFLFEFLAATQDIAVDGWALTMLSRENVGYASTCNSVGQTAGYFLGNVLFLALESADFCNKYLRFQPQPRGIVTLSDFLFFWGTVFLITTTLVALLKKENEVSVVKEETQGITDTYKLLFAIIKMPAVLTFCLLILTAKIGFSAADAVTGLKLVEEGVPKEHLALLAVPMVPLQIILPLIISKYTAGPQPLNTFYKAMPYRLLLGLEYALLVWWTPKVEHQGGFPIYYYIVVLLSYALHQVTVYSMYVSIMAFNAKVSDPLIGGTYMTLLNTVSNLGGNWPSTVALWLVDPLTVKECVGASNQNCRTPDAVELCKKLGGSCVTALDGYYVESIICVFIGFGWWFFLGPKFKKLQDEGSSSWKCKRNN
UniProt A6NIH7: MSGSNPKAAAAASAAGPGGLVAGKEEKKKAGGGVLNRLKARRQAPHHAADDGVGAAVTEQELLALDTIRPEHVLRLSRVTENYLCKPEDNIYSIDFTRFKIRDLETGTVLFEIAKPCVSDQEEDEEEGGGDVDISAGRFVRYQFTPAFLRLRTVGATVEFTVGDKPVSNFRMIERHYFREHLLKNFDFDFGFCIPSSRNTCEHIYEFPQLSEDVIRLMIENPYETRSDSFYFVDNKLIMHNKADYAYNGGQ
UniProt O14925: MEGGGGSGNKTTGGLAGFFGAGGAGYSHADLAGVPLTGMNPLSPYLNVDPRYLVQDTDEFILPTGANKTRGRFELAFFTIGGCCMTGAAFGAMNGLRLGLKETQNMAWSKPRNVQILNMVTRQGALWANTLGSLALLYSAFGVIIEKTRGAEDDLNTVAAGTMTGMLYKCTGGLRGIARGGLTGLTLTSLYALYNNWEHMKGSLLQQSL
UniProt O00401, whole entry: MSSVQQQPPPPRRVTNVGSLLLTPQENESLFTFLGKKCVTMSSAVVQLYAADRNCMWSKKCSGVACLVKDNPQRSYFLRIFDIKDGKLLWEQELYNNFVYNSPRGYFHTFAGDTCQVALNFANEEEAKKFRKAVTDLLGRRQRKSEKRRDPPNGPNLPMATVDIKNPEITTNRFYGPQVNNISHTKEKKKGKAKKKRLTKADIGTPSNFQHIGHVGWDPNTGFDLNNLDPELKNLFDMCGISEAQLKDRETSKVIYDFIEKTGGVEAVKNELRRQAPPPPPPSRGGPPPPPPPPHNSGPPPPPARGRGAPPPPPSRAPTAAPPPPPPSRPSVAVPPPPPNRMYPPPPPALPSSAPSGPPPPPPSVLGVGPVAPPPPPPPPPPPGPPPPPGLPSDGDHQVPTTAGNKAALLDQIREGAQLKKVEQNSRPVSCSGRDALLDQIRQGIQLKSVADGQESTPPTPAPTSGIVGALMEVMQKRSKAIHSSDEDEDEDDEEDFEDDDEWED
UniProt O15400: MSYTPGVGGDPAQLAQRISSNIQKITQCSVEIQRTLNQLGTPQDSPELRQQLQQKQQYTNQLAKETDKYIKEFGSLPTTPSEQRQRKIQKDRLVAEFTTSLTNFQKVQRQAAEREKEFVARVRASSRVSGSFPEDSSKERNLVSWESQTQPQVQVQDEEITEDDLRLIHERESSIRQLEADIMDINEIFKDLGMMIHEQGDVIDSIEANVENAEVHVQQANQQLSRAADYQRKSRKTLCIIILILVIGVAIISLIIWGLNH
UniProt O15061: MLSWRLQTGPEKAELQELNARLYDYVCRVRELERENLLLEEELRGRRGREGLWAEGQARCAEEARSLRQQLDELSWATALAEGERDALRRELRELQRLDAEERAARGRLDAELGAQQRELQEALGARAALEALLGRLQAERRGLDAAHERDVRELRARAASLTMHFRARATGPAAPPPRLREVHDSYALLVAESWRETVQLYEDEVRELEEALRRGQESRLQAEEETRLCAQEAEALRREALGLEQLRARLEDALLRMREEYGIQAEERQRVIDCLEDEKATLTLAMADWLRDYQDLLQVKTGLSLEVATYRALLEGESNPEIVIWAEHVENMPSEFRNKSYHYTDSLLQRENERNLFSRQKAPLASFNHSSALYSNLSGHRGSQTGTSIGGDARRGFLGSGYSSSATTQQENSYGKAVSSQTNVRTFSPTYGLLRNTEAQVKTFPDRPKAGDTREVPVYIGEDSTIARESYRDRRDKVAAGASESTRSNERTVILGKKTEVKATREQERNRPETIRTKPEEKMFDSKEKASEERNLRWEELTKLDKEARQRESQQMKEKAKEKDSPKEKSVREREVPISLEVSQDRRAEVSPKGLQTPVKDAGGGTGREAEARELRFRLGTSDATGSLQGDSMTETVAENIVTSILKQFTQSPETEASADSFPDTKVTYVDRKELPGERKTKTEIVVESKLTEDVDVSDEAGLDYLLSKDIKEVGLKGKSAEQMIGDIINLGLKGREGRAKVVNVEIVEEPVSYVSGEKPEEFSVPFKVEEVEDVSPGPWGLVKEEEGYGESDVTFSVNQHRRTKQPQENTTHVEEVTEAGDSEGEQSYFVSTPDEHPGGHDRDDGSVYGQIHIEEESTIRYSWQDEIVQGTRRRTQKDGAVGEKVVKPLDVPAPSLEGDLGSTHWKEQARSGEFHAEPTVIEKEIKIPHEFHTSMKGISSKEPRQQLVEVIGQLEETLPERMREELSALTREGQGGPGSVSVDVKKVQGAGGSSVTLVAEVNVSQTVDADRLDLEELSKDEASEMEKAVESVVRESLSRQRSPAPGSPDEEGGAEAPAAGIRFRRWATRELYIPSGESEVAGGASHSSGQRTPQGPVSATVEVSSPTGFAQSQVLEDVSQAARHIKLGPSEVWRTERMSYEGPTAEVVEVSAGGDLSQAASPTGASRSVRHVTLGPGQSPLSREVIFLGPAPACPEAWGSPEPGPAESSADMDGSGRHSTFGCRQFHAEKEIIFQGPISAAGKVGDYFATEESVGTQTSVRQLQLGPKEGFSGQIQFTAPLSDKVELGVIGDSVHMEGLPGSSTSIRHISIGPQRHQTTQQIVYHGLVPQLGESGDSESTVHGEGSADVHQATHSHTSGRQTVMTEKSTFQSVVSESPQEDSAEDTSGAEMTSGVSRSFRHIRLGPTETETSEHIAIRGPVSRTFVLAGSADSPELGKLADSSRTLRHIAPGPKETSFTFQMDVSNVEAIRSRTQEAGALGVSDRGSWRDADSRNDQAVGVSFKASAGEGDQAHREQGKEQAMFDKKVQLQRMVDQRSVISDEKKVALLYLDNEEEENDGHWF
UniProt O14950, whole entry: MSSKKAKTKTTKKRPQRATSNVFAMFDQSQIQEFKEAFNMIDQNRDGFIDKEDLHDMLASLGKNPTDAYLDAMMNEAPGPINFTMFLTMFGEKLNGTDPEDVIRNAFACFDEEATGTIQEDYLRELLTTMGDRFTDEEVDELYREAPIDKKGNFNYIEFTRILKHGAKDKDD

Compound in one assay: CCc1cnccc1C(=O)Nc1cc2c(cc1F)NC(=O)CC2
The assay can be described thus: melting temperature shift (DMSO Tm minus MBE1-treated Tm) in cellular thermal proteome profiling; higher = less thermal stabilization by MBE1 (negative = stabilized by MBE1). Particulars: A375; MBE1 concentration: 100 nM.
With LSM1 (UniProt O15116), the melting temperature shift was -3.71 °C.
Still for that read-out and setting: with SLC9A3R1 (UniProt O14745) the figure was -4.67 °C; with UniProt O14933, 0.361 °C.
Regarding NKRF (UniProt O15226), the melting temperature shift amounted to 0.0961 °C.
The same measure, in the same setting: with NUDT19 (UniProt A8MXV4) the figure was -0.134 °C; with TRAPPC13 (UniProt A5PLN9), -0.25 °C; with UniProt O15211, -1.11 °C.

Staying with this assay, now noted: A375; MBE1 concentration: 1 uM.
As for CASK (UniProt O14936), the melting temperature shift came to 0.171 °C.
On the same count and under the same terms, next, ASAP2 (UniProt O43150): 0.837 °C.
Consider PPP1R12A (UniProt O14974), for which the melting temperature shift is -0.885 °C.
Still for that read-out and setting: with BCKDK (UniProt O14874) the figure was -0.397 °C.
Consider HSPA12A (UniProt O43301), for which the melting temperature shift was determined as 0.385 °C.
On the same count and under the same terms, with ARHGEF10 (UniProt O15013) the figure was -0.997 °C; with UniProt O14972, 0.226 °C; with ANKRD28 (UniProt O15084), 0.556 °C.
Still for that read-out and setting: with UniProt O15213 the figure was 0.824 °C; with UniProt A8MW92, 0.397 °C; with EIF3F (UniProt O00303), -0.0894 °C.
PSMD11 (UniProt O00231): the melting temperature shift amounted to 0.366 °C.
On the same count and under the same terms, with ZW10 (UniProt O43264) the figure was -0.329 °C; with B4GALT5 (UniProt O43286), 0.397 °C; with DNM1L (UniProt O00429), 0.122 °C.
Still for that read-out and setting: with SLC33A1 (UniProt O00400) the figure was -0.945 °C.
On the same count and under the same terms, next, UNC119B (UniProt A6NIH7): -1.92 °C.
NDC80 (UniProt O14777): the melting temperature shift is -0.0128 °C.
Still for that read-out and setting: with HAX1 (UniProt O00165) the figure was -1.23 °C.
On the same count and under the same terms, with TIMM23 (UniProt O14925) the figure was -1.05 °C; with HIP1 (UniProt O00291), -0.0611 °C; with WASL (UniProt O00401), 1.77 °C.
The same measure, in the same setting: with STX7 (UniProt O15400) the figure was -1.95 °C; with KIF2A (UniProt O00139), 0.208 °C.
Turning to FPGT (UniProt O14772), the melting temperature shift amounted to 0.423 °C.
Still for that read-out and setting: with POLR2D (UniProt O15514) the figure was -1.78 °C.
Still for that read-out and setting: with TMEM189 (UniProt A5PLL7) the figure was -1.17 °C.
On the same count and under the same terms, with UniProt O15061 the figure was -0.295 °C; with WWP2 (UniProt O00308), 0.282 °C.
With UniProt O14950, the melting temperature shift came out at 0.159 °C.
Still for that read-out and setting: with CLIC1 (UniProt O00299) the figure was -0.288 °C; with LSM1 (UniProt O15116), -0.283 °C; with SLC9A3R1 (UniProt O14745), -2.33 °C.
Still for that read-out and setting: next, UniProt O14933: -0.995 °C; NKRF (UniProt O15226): -0.115 °C; NUDT19 (UniProt A8MXV4): 0.288 °C.
As for TRAPPC13 (UniProt A5PLN9), the melting temperature shift was 0.0305 °C.
Same read-out and setting: with UniProt O15211 the figure was -1.6 °C.

The values are drawn from the supplement of paper PMC12595434, “Development of retinoid nuclear receptor pathway antagonists through targeting aldehyde dehydrogenase 1A3” (iScience, 2025).
